# Assay results reported in PubChem BioAssay (Tox21).
# Protein sequences, listed by entry. Tags and fused reporters are not part of them.
# UniProt P14416, whole entry, looked up: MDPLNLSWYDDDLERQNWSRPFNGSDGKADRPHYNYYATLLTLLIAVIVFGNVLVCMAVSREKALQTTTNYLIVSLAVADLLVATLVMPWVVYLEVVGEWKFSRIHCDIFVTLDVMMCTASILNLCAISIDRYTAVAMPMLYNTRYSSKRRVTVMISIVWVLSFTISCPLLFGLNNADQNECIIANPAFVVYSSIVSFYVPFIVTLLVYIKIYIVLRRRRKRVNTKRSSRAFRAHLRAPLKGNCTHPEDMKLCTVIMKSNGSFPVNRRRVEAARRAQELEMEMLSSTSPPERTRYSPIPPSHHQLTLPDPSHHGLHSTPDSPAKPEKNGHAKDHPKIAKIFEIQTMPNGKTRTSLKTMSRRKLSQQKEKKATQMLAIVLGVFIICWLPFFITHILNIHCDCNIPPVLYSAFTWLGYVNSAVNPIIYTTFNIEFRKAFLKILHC
# Where “and” joins values, the source holds several entries; their conditions need not be identical. Equal entries are not always repeated. This list was built around the results that the source calls inconclusive (neither active nor inactive); the mix of calls is not that of the screen. For some of these results: A potency beside an inconclusive call is a rough fit, not a confirmed value. A structure can be active in one record and inactive in another. Calls of active or inactive are those of the source. Unless noted, calls follow the shape of the full dose curve.
# Legend:
# [1] = p53 small molecule agonists, cell-based qHTS assay: qHTS cell viability counter screen (AID 1963581); also: nearly all actives have a fitted effect of over 45% in size; also: potency is read from the fitted curve at half-maximal effect
# Method in brief: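 p53RE-bla HCT-116 cells, compounds added 5 h after plating and incubated 16 h at 37 C. Cytotoxicity measured in the same wells as intracellular ATP by CellTiter-Glo luminescence after 30 min at room temperature.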
# [2] = cAMP Responsive Elements (CRE) small molecule antagonists, cell-based qHTS assay (AID 1963591; active = well fitted inhibition curve with a large enough effect in the signal ratio in the repeat runs, not every such curve was filed as active; inconclusive = weak or mixed curves, or effect the other way; the % refers to the signal ratio; also: potency is read from the fitted curve at half-maximal effect); settings: CRE-bla HEK293T, beta-lactamase FRET ratio; activity change, negative = inhibition: at 92.4 µM (top of the series) unless noted
# Method in brief: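 CRE-bla HEK293T cells plated 18 h, then given compound plus NKH477 at 0.25 uM final for 3 h at 37C. Beta-lactamase reporter read with LiveBLAzer B/G FRET substrate after 2 h at room temperature.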
# [3] = target: Beta-2 adrenergic receptor (Homo sapiens) (UniProt P07550); assay: Adrenergic beta2 receptor (ADRB2) small molecule agonists, cell-based qHTS assay (AID 1963593); settings: CHO-ADRB2 cells, cAMP HTRF, 30 min; also: potency is read from the fitted curve at half-maximal effect;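 as to activation: CHO cells stably overexpressing human ADRB2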
# Method in brief: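 CHO cells stably over-expressing ADRB2 were plated overnight at 37C, then dosed with compounds plus a stimulation mix containing 100uM IBMX and 25uM Ro-20-1724 for 0.5hr at room temperature. cAMP was measured by HTRF competition, 1hr.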
# [4] = target: D(2) dopamine receptor (Homo sapiens) (UniProt P14416); assay: Dopamine D2 receptor (DRD2) small molecule agonists, cell-based qHTS assay (AID 1963594); settings: HEK293-DRD2 cAMP HTRF, agonist mode, 30 min; activation: at 92.4 µM (top of the series) unless noted; also: nearly all actives have a fitted effect of over 35% in size; also: potency is read from the fitted curve at half-maximal effect
# Method in brief: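 HEK293 cells stably expressing DRD2 were cultured 24 h at 37 C, then given Ro20-1724 (0.1 mM final) and compounds for 10 min at room temperature. NKH477 (200nM) was then added for 30 min. cAMP was read by HTRF.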
# [5] = target: D(2) dopamine receptor (Homo sapiens) (UniProt P14416); assay: Dopamine D2 receptor (DRD2) small molecule antagonists, cell-based qHTS assay (AID 1963595; active = well fitted inhibition curve with a large enough effect in the signal ratio in the repeat runs, with a control signal flat; inconclusive = weak or mixed curves, or effect the other way; the % refers to the signal ratio; also: potency is read from the fitted curve at half-maximal effect); settings: HEK293-DRD2 cAMP HTRF antagonist mode; activity change, negative = inhibition: at 92.4 µM (top of the series) unless noted
# Method in brief: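 DRD2-HEK293; 0.1 mM Ro20-1724; cpd 10 min RT; NKH477 200 nM + quinpirole 12 nM, 30 min RT; HTRF cAMP (cAMP-d2/anti-cAMP cryptate), 665/620 nm ratio after 1 h.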
# [6] = target: Beta-2 adrenergic receptor (Homo sapiens) (UniProt P07550); assay: Adrenergic beta2 receptor (ADRB2) small molecule antagonists, cell-based qHTS assay (AID 1963592); settings: CHO-ADRB2 cells, isoproterenol-stimulated cAMP HTRF ratio, 0.5 h; activity change, negative = inhibition: at 92.4 µM (top of the series) unless noted; also: nearly all actives have a fitted effect of over 50% in size
# Method in brief: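 Cells (CHO, stable ADRB2 overexpression) incubated 18-20hr at 37C; compounds added from DMSO; agonist mix (1nM isoproterenol, 100uM IBMX, 25uM Ro-20-1724) added; 0.5hr RT; d2-cAMP and anti-cAMP-cryptate added; 1hr RT; 665/615 nm read.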
# [7] = activation: at 92.4 µM (top of the series) unless noted
# % is scaled to controls: 0 for no effect and ±100 for the full control effect.
structure (smiles),measurement,setting,value
CCCCCCOCCOCCO,Potency,[1],"inactive and inconclusive: 5.13 µM [cytotoxic, single point]"
same,"activity change, negative = inhibition",[2],inconclusive: -4.45%
same,activation,[3]; [7],inconclusive: -44.8% and inconclusive: -1.92%
CC(O)COCC(C)O (stereo not given),Potency,[1],"inconclusive: 1.82 µM [cytotoxic, single point]"
same,Potency,[2],inactive
same,activation,[3]; [7],inconclusive: 10.3% and inconclusive: -0.899%
same,Potency,[4],inactive
CCO[Si](CCC#N)(OCC)OCC,Potency,[1],inactive
same,Potency,[2],inactive
same,activation,[3]; [7],inconclusive: 4.19% and inconclusive: 22.9%
CNCCCN1c2ccccc2CCc2ccccc21,Potency,[1],inconclusive: 0.0013 µM [cytotoxic]
same,Potency,[2],inactive
same,Potency,[4],"inconclusive: 4.22 µM [falling, single point]"
same,Potency,[5],"inconclusive: 26.6 µM [inhibitor, single point]"
Clc1ccccc1-c1nc(-c2ccncc2)no1,Potency,[1],inactive
same,Potency,[2],inactive
same,"activity change, negative = inhibition",[5],inconclusive: -0.415% [at 42.5 µM]
O=C1CN(/N=C/c2ccc([N+](=O)[O-])o2)C(=O)N1,Potency,[1],inactive
same,Potency,[2],"inconclusive: 15.3 µM [fluorescent, full curve] and inconclusive: 54.5 µM [fluorescent, single point]"
same,"activity change, negative = inhibition",[2],inconclusive: 0.142% [at 42.4 µM]
same,activation,[3]; [7],inconclusive: 43.2% and inconclusive: -0.42%
same,Potency,[4],active: 68.6 µM
same,"activity change, negative = inhibition",[5],inconclusive: -6.15%
COc1ccc([C@@H]2Sc3ccccc3NC(=O)[C@@H]2O)cc1,Potency,[1],"inconclusive: 14.1 µM [rising, partial curve]"
same,"activity change, negative = inhibition",[2],inconclusive: -15.2% [at 42.4 µM]
same,activation,[3]; [7],inconclusive: -61.2% [at 42.5 µM]
CC1=CC(=O)NS(=O)(=O)O1,Potency,[1],active: 23 µM and inactive
same,Potency,[2],"inconclusive: 1.7 nM [falling, full curve, poor fit]"
same,Potency,[3]; [7],"inconclusive: 24.3 µM [inhibitor, partial curve, poor fit]"
same,Potency,[5],inactive
COC(=O)c1c(C)cc(O)c(C)c1O,Potency,[1],inactive
same,"activity change, negative = inhibition",[6],inconclusive: -13.3%
same,Potency,[3]; [7],inactive
COC(OC)C(C)c1ccccc1 (stereo not given),Potency,[1],inactive
same,Potency,[2],inactive
same,Potency,[3]; [7],"inconclusive: 0.0969 µM [rising, full curve, poor fit]"
O=[N+]([O-])c1c(Cl)cc(Cl)cc1Cl,Potency,[1],inactive
same,Potency,[2],inactive
same,activation,[3]; [7],inconclusive: -1.48%
C=Cc1ccccc1,Potency,[1],"inconclusive: 1.8 µM [rising, single point]"
same,activation,[3]; [7],inconclusive: -4.77%
Cc1ccc(C(C)(C)O)cc1,Potency,[1],inactive
same,activation,[3]; [7],inconclusive: -21%
N#Cc1ccc(CC(=O)c2cccc(C(F)(F)F)c2)cc1,Potency,[1],"inconclusive: 22.9 µM [rising, single point]"
same,activation,[3]; [7],inconclusive: 8.17%
COC(=O)C(C)O (stereo not given),Potency,[1],"inconclusive: 52.5 µM [rising, single point]"
same,Potency,[3]; [7],inactive
Cc1ccc(Nc2ccc(O)c3c2C(=O)c2ccccc2C3=O)cc1,Potency,[1],inactive
same,Potency,[3]; [7],inactive
C=CC(=O)OCCOCCOCC,Potency,[1],"inconclusive: 0.115 µM [rising, partial curve]"
same,activation,[3]; [7],inconclusive: 4.86%
C/C=C(\C)C(=O)OCCC(C)CCC=C(C)C (stereo not given),Potency,[1],"inconclusive: 5.76 µM [rising, partial curve, poor fit]"
same,activation,[3]; [7],inconclusive: -6.96%
CCC(=O)Nc1cccc(N)c1,Potency,[1],inactive
same,Potency,[3]; [7],"inconclusive: 0.545 µM [inhibitor, single point]"
NCCNCCNCCN,Potency,[1],"inconclusive: 5 µM [cytotoxic, single point]"
same,Potency,[3]; [7],inactive
CC1(C)C(=O)N(CO)C(=O)N1CO,Potency,[1],"inconclusive: 0.513 µM [rising, partial curve, poor fit]"
same,activation,[3]; [7],inconclusive: -23.4%
O=C(O)CCCc1ccccc1,Potency,[1],inactive
same,activation,[3]; [7],inconclusive: 21.8% [at 42.5 µM]
O=C(O)c1ccc(C(=O)O)c(C(=O)O)c1,Potency,[1],"inconclusive: 0.324 µM [rising, partial curve, poor fit]"
same,activation,[3]; [7],inconclusive: 0.0295% and inconclusive: -0.542%
CN(C)CCCNCCC#N,Potency,[1],inactive
same,activation,[3]; [7],inconclusive: 2.06%
C[N+](C)(C)CCCCCC[N+](C)(C)C,Potency,[1],"inconclusive: 7.93 µM [rising, partial curve]"
same,"activity change, negative = inhibition",[6],inconclusive: 4.33% [at 42.5 µM]
same,activation,[3]; [7],inconclusive: -20.7% [at 42.5 µM]
same,activation,[3]; at 42.5 µM (top of the series),inactive: -7.93%
same,Potency,[4],"inconclusive: 33.5 µM [rising, single point]"

# Retrieved one by one from the list above (6):
structure (smiles),measurement,setting,value
CC1=CC(=O)NS(=O)(=O)O1,Potency,[2],"inconclusive: 1.7 nM [falling, full curve, poor fit]"
O=[N+]([O-])c1c(Cl)cc(Cl)cc1Cl,Potency,[1],inactive
Clc1ccccc1-c1nc(-c2ccncc2)no1,Potency,[1],inactive
COC(=O)c1c(C)cc(O)c(C)c1O,Potency,[3]; [7],inactive
CN(C)CCCNCCC#N,Potency,[1],inactive
Clc1ccccc1-c1nc(-c2ccncc2)no1,Potency,[2],inactive
